Results are given in words; binding and its absence hold for the method and conditions named. A result given as binding can be weak or reduced; the word gives no strength.
Experiments:
Mucin (bovine) (bovine) [1] = assay: ELISA with biotin-labeled lectin
Mucin (pig) (pig) [2] = assay: ELISA with biotin-labeled lectin
Mucin (pig) (pig) [3] = assay: hemagglutination inhibition
Mucin (bovine) (bovine) [4] = assay: ELISA, glycoprotein coated, biotin-labeled lectin; thyroglobulin = 100%; ⊚ = relative values of 120 to 80
Mucin (pig) (pig) [5] = assay: as above

Measured: binding

B1: Aleuria aurantia lectin (AAL) of Comparison Example 1 (other, UniProt P18891 2-313, looked up)
chain: PTEFLYTSKIAAISWAATGGRQQRVYFQDLNGKIREAQRGGDNPWTGGSSQNVIGEAKLFSPLAAVTWKSAQGIQIRVYCVNKDNILSEFVYDGSKWITGQLGSVGVKVGSNSKLAALQWGGSESAPPNIRVYYQKSNGSGSSIHEYVWSGKWTAGASFGSTVPGTGIGATAIGPGRLRIYYQATDNKIREHCWDSNSWYVGGFSASASAGVSIAAISWGSTPNIRVYWQKGREELYEAAYGGSWNTPGQIKDASRPTPSLPDTFIAANSSGNIDISVFFQASGVSLQQWQWISGKGWSIGAVVPTGTPAGW
modifications: biotin-labeled in the Western blotting and ELISA experiments
notes: Bought lectin
binds: all assays above

From patent US8461305B2, “L-fucose α1→6 specific lectin” (J-Oil Mills, Inc., priority 2008, dated 2013)
